Test results reported in the supplement of paper PMC6411743.
± gives the standard deviation of the averaged measurements. Some of the results follow.

The chains behind the UniProt entries cited, without tags or fusion partners. Where a name states a change or a piece, a line headed by the entry shows the natural chain unless it says otherwise.
UniProt Q86X83, whole entry: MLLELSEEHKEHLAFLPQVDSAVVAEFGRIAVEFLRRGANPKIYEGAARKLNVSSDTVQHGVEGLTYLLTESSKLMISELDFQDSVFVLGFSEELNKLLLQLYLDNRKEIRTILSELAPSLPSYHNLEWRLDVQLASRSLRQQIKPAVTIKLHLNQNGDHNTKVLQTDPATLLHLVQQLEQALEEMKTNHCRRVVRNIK
UniProt Q8IW35: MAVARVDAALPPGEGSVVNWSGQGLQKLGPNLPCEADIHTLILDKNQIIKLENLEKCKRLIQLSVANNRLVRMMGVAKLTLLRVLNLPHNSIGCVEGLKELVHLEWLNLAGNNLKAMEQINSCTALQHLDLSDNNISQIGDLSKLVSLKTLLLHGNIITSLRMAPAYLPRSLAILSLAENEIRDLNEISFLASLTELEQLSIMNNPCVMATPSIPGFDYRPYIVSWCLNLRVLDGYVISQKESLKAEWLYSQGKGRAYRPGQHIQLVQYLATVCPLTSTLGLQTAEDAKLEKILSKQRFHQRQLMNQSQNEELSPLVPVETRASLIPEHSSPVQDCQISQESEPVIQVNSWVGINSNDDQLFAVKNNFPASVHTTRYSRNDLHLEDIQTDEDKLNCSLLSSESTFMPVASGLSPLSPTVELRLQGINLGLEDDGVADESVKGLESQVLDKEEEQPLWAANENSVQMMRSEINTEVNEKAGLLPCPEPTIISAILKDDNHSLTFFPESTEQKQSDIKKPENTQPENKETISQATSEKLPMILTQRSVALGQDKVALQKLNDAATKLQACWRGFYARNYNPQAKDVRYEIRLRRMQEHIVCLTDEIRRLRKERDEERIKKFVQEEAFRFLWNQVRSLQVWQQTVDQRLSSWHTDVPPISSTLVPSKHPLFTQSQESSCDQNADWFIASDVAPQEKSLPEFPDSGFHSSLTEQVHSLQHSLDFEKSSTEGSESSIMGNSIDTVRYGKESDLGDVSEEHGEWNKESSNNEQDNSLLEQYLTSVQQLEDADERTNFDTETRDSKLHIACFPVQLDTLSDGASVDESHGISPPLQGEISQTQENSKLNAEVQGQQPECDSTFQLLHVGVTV
UniProt Q8IXQ5, whole entry: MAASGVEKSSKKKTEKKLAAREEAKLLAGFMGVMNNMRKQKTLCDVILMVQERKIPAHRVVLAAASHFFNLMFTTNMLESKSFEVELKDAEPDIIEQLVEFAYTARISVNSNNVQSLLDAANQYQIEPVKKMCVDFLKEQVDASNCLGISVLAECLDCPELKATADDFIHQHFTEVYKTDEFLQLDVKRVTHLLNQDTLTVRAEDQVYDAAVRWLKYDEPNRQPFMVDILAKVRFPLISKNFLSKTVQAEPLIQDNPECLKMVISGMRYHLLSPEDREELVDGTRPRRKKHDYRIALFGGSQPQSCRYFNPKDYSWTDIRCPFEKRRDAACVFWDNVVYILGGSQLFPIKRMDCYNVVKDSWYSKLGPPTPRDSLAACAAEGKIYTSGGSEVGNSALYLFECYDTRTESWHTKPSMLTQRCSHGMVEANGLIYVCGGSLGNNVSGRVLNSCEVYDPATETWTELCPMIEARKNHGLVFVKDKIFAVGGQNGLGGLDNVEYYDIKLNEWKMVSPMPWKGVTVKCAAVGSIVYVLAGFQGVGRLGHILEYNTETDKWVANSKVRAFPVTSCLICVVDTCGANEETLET
UniProt Q8IU85: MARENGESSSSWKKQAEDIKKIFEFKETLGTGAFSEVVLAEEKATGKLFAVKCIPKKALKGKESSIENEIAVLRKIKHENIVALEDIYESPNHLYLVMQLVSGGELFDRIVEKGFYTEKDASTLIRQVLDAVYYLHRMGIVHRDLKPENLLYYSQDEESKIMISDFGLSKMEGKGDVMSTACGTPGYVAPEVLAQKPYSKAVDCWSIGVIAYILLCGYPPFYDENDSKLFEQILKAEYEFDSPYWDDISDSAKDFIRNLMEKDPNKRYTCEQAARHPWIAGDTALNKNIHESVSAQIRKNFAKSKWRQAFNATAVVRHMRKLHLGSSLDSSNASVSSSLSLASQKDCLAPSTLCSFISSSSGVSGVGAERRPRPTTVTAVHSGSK
UniProt Q8TB61: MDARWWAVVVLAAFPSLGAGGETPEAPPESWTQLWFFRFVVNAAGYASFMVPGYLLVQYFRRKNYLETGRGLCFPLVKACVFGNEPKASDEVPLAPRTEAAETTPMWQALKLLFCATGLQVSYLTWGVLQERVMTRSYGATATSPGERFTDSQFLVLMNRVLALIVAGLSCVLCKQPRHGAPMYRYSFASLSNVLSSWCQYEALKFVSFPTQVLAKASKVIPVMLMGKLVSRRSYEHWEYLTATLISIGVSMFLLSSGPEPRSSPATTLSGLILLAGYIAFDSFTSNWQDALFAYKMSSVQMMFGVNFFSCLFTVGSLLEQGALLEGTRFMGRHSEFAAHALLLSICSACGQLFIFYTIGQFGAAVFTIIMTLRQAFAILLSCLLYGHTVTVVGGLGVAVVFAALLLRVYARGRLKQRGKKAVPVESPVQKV

Compound: Nc1nc2c(ncn2[C@@H]2O[C@H](COP(=O)(O)OP(=O)(O)OP(=O)(O)O)[C@@H](O)[C@H]2O)c(=O)[nH]1 [guanosine triphosphate]
Assay: NP40-soluble protein abundance relative to vehicle (solubility fold change) (ratio); higher = more soluble protein in presence of GTP
Protocol: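 Solubility proteome profiling in Jurkat crude lysate. Lysate was treated with Mg-GTP (0.1-10 mM) for 10 min at room temperature and 3 min at 37 °C, then solubilised with 0.8% NP40 and benzonase, followed by ultracentrifugation. Proteins were quantified by TMT10 LC-MS/MS; the value is the NP40-soluble abundance relative to the NP40-processed vehicle, from 3 independent experiments.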

| Target | NP40-soluble protein abundance (concentration: 0.1mM) | NP40-soluble protein abundance (concentration: 0.5mM) | NP40-soluble protein abundance (concentration: 1mM) | NP40-soluble protein abundance (concentration: 2mM) | NP40-soluble protein abundance (concentration: 4mM) | NP40-soluble protein abundance (concentration: 6mM) | NP40-soluble protein abundance (concentration: 8mM) | NP40-soluble protein abundance (concentration: 10mM) |
| --- | --- | --- | --- | --- | --- | --- | --- | --- |
| UniProt Q86X83 and related entries | 1.03 ± 0.035 | 1.03 ± 0.037 | 0.984 ± 0.04 | 0.958 ± 0.022 | 0.975 ± 0.013 | 0.938 ± 0.016 | 0.941 ± 0.028 | 0.935 ± 0.022 |
| UniProt Q8IW35 and related entries | 1.039 ± 0.0082 | 1.06 ± 0.032 | 1.09 ± 0.013 | 1.07 ± 0.059 | 1.04 ± 0.054 | 1.06 ± 0.05 | 1.05 ± 0.077 | 1.03 ± 0.058 |
| UniProt Q8IXQ5 and related entries | 1.04 ± 0.15 | 0.983 ± 0.084 | 0.925 ± 0.072 | 1 ± 0.15 | 1.08 ± 0.17 | 1.11 ± 0.24 | 1.01 ± 0.23 | 1.03 ± 0.32 |
| UniProt Q8IU85 and related entries | 1.08 ± 0.012 | 1.06 ± 0.09 | 1.02 ± 0.054 | 0.989 ± 0.017 | 0.932 ± 0.036 | 0.921 ± 0.089 | 0.897 ± 0.046 | 0.842 ± 0.026 |
| UniProt Q8TB61 and related entries | 0.954 ± 0.15 | 0.957 ± 0.064 | 0.953 ± 0.061 | 0.929 ± 0.053 | 0.942 ± 0.095 | 0.909 ± 0.042 | 0.923 ± 0.13 | 0.992 ± 0.09 |
